Values from PubChem BioAssay AID1159578 (Peter MacCallum Cancer Centre, 2015).
Here is a random part of about 18,000 reagents tested. About 1,030 of them (5.7%) were called active. 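Inactive calls also include pools with fewer than 3300 nuclei, whose migration was not assessed.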 Raw values are not corrected between plates. Unmarked entries are inactive. Reagents against one gene are numbered here. Not all columns of the deposit are shown.

- Screen: 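Knock-downs that alter how fast lymphatic endothelial cells migrate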 (primary screen)
- System: human lymphatic endothelial cells
- Reagent: siRNA pool against human genes, 40 nM
- Time to read-out: 48 h after transfection
- Measurement: 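Cells stained with dye and imaged after a scratch; covered wound area and nuclei counted, duplicates averaged, migration set against mock wells and turned into a robust z-score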
- Reading the numbers: migration robust z-score: higher = faster migration into the scratch; nuclei per well: higher = more cells in the well
- Call rule: 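Migration changed when robust z exceeds 2 or falls below -2 and mean nuclei number is at least 3300; otherwise not called changed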
- Calls: active = migration changed; inactive = no migration change, or too few cells

gene symbol	pool no.	migration robust z-score	nuclei per well, duplicate mean
CDH26 (GeneID 60437)	1	-0.5	5360
SOHLH2 (GeneID 54937)	1	0.12	6101
C17orf58 (GeneID 284018)	1	0.34	5988
SPATA6 (GeneID 54558)	1	-0.16	6761
NCOA6 (GeneID 23054)	1	-0.73	4998
ZSWIM9 (GeneID 374920)	1	-1.08	4622
CFAP70 (GeneID 118491)	1	1.12	5832
CCDC9 (GeneID 26093)	1	0.41	5340
KCNJ11 (GeneID 3767)	1	-1.43	4900
RAB32 (GeneID 10981)	1	-0.8	5514
EPHA7 (GeneID 2045)	1	-3.68 (active)	3375
SLC1A3 (GeneID 6507)	1	-2.15 (active)	3756
OR1E2 (GeneID 8388)	1	0.18	5620
REG3A (GeneID 5068)	1	-0.62	5305
PALM2AKAP2 (GeneID 445815)	1	2	6358
PALM2AKAP2 (GeneID 445815)	2	2.71 (active)	5859
PALM2AKAP2 (GeneID 445815)	3	0.66	5678
BPIFB2 (GeneID 80341)	1	-0.7	5734
CDKN2C (GeneID 1031)	1	-0.6	5223
MTCH2 (GeneID 23788)	1	1.16	4571
RADX (GeneID 55086)	1	0.24	7600
ASB12 (GeneID 142689)	1	-0.36	6278
CFAP100 (GeneID 348807)	1	0.88	5742
AFG3L2 (GeneID 10939)	1	-0.1	4764
ELOVL2 (GeneID 54898)	1	-0.5	6026
POLI (GeneID 11201)	1	-0.86	6984
MTNR1B (GeneID 4544)	1	-0.88	6370
DDOST (GeneID 1650)	1	1.09	5990
CELF6 (GeneID 60677)	1	-1.04	5730
RASSF8 (GeneID 11228)	1	-0.38	5604
TRDMT1 (GeneID 1787)	1	-0.57	5998
ASCL1 (GeneID 429)	1	-0.24	5260
BMF (GeneID 90427)	1	1.11	5945
FAM110A (GeneID 83541)	1	0.48	5614
DNAJB14 (GeneID 79982)	1	1.35	6270
ECT2L (GeneID 345930)	1	0.22	4776
ATG14 (GeneID 22863)	1	-0.7	6166
FGFR3 (GeneID 2261)	1	-2.67 (active)	3919
OR3A1 (GeneID 4994)	1	1.31	6493
SLC35G2 (GeneID 80723)	1	-0.57	5162
AFG2A (GeneID 166378)	1	0.38	4557
SLC36A3 (GeneID 285641)	1	-1.48	5919
FOXRED2 (GeneID 80020)	1	-0.5	6640
ALOX5 (GeneID 240)	1	0.88	5214
LRG1 (GeneID 116844)	1	0.22	6066
DMRTA1 (GeneID 63951)	1	0.44	6328
GAS8-AS1 (GeneID 750)	1	-0.58	5075
STK24 (GeneID 8428)	1	0.44	4354
GJB6 (GeneID 10804)	1	-3.61 (active)	5986
TM6SF1 (GeneID 53346)	1	-0.16	6468
OR2U1P (GeneID 26695)	1	-0.5	6725
WDCP (GeneID 80304)	1	0.75	5740
BRPF1 (GeneID 7862)	1	0.9	6830
CRKL (GeneID 1399)	1	0	4796
DNAI3 (GeneID 126820)	1	-1.85	3902
RPL26L1 (GeneID 51121)	1	-1.27	3672
SPATA31A1 (GeneID 647060)	1	-0.05	5698
SPATA31A1 (GeneID 647060)	2	2.06 (active)	6730
